Experimental findings from paper PMC5437200, “Ionic liquids for the passive sampling of sulfonamides from water—applicability and selectivity study” (Analytical and Bioanalytical Chemistry, 2017) are described below.

A short description of data set [1]: PASSIL passive sampling from secondary effluent. As to conditions: effluent samples, 7 days, [P666-14][N(CN)2], PES.
A short description of data set [2]: PASSIL passive sampling from ultrapure water with [P666-14][N(CN)2] and PES membranes. Particulars: 14 days, initial 2 μg mL−1, 20 °C, stirred.

As to `Nc1ccc(S(=O)(=O)Nc2ccc(Cl)nn2)cc1` [SCP, sulfachloropyridazine], in data set [1], the “sampling rate (Rs)” value stood at 0.59 L/day.
Same read-out and setting: as for `COc1cc(NS(=O)(=O)c2ccc(N)cc2)nc(OC)n1` [SDX, sulfadimethoxine], the figure is 0.45 L/day; as for `Cc1nnc(NS(=O)(=O)c2ccc(N)cc2)s1` [SMT, sulfamethiazole], 0.8 L/day.
On to `Cc1ccnc(NS(=O)(=O)c2ccc(N)cc2)n1` [SMZ, sulfamerazine], for which, in data set [2], the “drop in concentration in the donor solution” value was “negligible”.
On the same count and under the same terms, as for `Nc1ccc(S(=O)(=O)Nc2ccccn2)cc1` [SPD, sulfapyridine], the entry is “negligible”.
For `Nc1ccc(S(=O)(=O)Nc2nccs2)cc1` [STZ, sulfathiazole], in data set [1], the “sampling rate (Rs)” value is 0.8 L/day. The “drop in concentration in the donor solution” value in data set [2] is recorded as roughly 50%.
